Measured values taken from PubChem BioAssay AID540303 (National Center for Advancing Translational Sciences (NCATS), 2011).
The whole screen tested about 330,000 compounds, of which about 1,000 (0.3%) were called active. Inconclusive results, whose numbers are uncertain, are shown with a selection of clear calls. Calls come from the whole dose curve; as a rule, active = well fitted inhibition curve with a large enough effect; inconclusive = small, poorly fitted or top-dose-only effect; inactive = no such curve, though single readings can be large or run the other way; tested in mouse RAW 264.7 cells. Potencies beside an inconclusive call are fits to weak or partial responses and may not hold up.

Test: qHTS for Inhibitors of Cell Surface uPA Generation; note: nearly all actives have a fitted effect of over 55% in size
Settings: cell surface uPA generation assay; series mostly up to 38.3 µM; activity change, negative = inhibition: at the top concentration
From the text: The overall objective of this project is to perform a quantitative high throughput screen (qHTS) to identify novel compounds that inhibit the generation of cell surface urokinase activity. The urokinase plasminogen activator (uPA) is one of the two primary endogenous systems that mediate plasminogen activation into plasmin. Members of this system, including uPA and its receptor (uPAR), are overexpressed in several malignant tumors. This system plays a major role in adhesion, migration, invasion and metastasis of cancer cells. Small molecule inhibitors of the uPA system will serve as probes to understand the molecular mechanisms of the uPA cascade and better understanding the microenvironmental circumstances that facilitate the activation of plasminogen by uPA, and finally may provide novel candidate agents for anticancer drug therapy.
[…] […] Upon inhibition of the uPA activation cascade, the subsequent cell surface uPA activity-dependent translocation of LF into the cytoplasm is inhibited. ATP-Lite is used to measure intracellular ATP concentrations, which remain increased if LF entry into the cytoplasm is inhibited. This validation assay was performed using a small set of validation compounds.
NIH Chemical Genomics Center [NCGC]
NIH Molecular Libraries Probe Centers Network [MLPCN]
Assay Submitter (PI): Thomas Bugge, National Institute of Dental and Craniofacial Research, NIH
Cultured RAW 264.7 were dispensed into 1536-well clear bottom, white walled tissue culture plates at a density of 4000 cells/well and were incubated overnight (12-16 h) at 37 C in a 5% CO2 incubator. Serially diluted compounds in 23 nl DMSO were added to cells. […] Compound and reagent-treated plates were incubated for 24 h at 37 C in a 5% CO2 incubator. Perkin Elmer ATPlitetrade mark 1 step (3 ul) was then added to each well. Luminescence was detected using a Perkin Elmer ViewLuxtrade mark plate reader.
1.Dispensing RAW 264.7 cells into 1536-well, white walled tissue culture plates at a density of 4000 cells/well (4 uL).
2.Incubation at 37 C in a 5% CO2 incubator overnight.
3.Serially diluting compounds (1:5 serial dilution; 0.0024 uM to […] final concentration) in 23 nl DMSO.
5.Incubating the compound and reagent-treated plates for 24 hours at 37 C in a 5% CO2 incubator.
6.Adding ATP-Lite (3 ul).
7.Reading plates by ViewLux with an exposure length of 5 seconds.
% is set by controls: 0 for no effect and ±100 for the full control effect; potency is the fitted concentration of half-maximal effect.

**Q.** With `O=C(C1=C[C@@H](c2ccc(Br)cc2)C[C@@H](OCc2ccc(CO)cc2)O1)N1CCN(Cc2ccccc2)CC1` as the compound, how does the Potency read?
**A.** Its Potency is inconclusive: 12.6 µM [inhibitor, single point].

**Q.** For `CCOC(=O)N1CCC(N2C(=O)c3ccccc3C2Nc2cc(OC)c(OC)c(OC)c2)CC1` (stereo not given), which Potency is on record?
**A.** Its Potency is inconclusive: 12.6 µM [inhibitor, single point].

**Q.** For `CCOCCCNC(=O)c1cc2c(-c3ccc(Cl)cc3)nn(C)c2s1`, which “activity change, negative = inhibition” value is on record?
**A.** The value was inactive: -17%.

**Q.** For `CN(C)S(=O)(=O)c1ccc(C(=O)Nc2cc(S(=O)(=O)Nc3ccccc3Cl)ccc2N2CCCCC2)cc1`, which “activity change, negative = inhibition” value is on record?
**A.** The value was inactive: -0.16%.

**Q.** With `Cc1cc(N/N=C/c2ccccc2O)c2ccccc2n1` as the compound, how does the Potency read?
**A.** The Potency was inconclusive: 10 µM [inhibitor, single point].

**Q.** With `CC1(C)OC1COc1c2ccoc2cc2oc(=O)ccc12` (stereo not given) as the compound, how does the Potency read?
**A.** Its Potency is inconclusive: 0.355 µM [inhibitor, full curve, poor fit].

**Q.** With `COc1ccc(Cn2c(CCC(=O)Nc3ccc(C)c(C)c3)nc3cccnc32)cc1` as the compound, how does the “activity change, negative = inhibition” value read?
**A.** Its value is inactive: 2.11%.

**Q.** Which Potency does the source give for `Cn1cc(C(=O)N/N=C/c2c(O)ccc3ccccc23)ccc1=O` here?
**A.** The Potency was inconclusive: 6.31 µM [inhibitor, partial curve, poor fit].

**Q.** With `CCOC(=O)N1CCN(S(=O)(=O)c2c(C)nc3sccn3c2=O)CC1` as the compound, how does the Potency read?
**A.** Its Potency is inconclusive: 7.94 µM [inhibitor, partial curve, poor fit].

**Q.** Which Potency does the source give for `O=C(OCC(=O)N1CCC(Cc2ccccc2)CC1)c1cncc(Br)c1` here?
**A.** Its Potency is inconclusive: 0.447 µM [inhibitor, partial curve, poor fit].

**Q.** Which Potency does the source give for `Cc1cc(C)nc(Nc2n[nH]c(-c3ccccc3C)n2)n1` here?
**A.** The Potency was inconclusive: 3.55 µM [inhibitor, full curve, poor fit].

**Q.** Which Potency does the source give for `Cc1cc(N)c2cc(NC(=O)/C=C/c3ccccc3Cl)ccc2n1` here?
**A.** Its Potency is inconclusive: 20 µM [inhibitor, single point].

**Q.** For `Cc1ccc(CN2CCSc3ccc(C(=O)NCCCN4CCN(C)CC4)cc32)cc1`, which Potency is on record?
**A.** Its Potency is inconclusive: 7.94 µM [inhibitor, partial curve, poor fit].

**Q.** With `CN(C)c1ccc(NC(=O)CN2C(=O)CC(c3ccccc3)=Nc3ccccc32)cc1` as the compound, how does the “activity change, negative = inhibition” value read?
**A.** Its value is inactive: 2.6%.

**Q.** With `COc1ccccc1NC(=S)NC(=O)Cc1ccc(Cl)cc1` as the compound, how does the “activity change, negative = inhibition” value read?
**A.** Its value is inactive: 1.83%.

**Q.** For `Cc1cccc(NC(=O)CCc2c(C)nn(-c3ccc(N4CCCCC4)nn3)c2C)c1`, which Potency is on record?
**A.** The Potency was inconclusive: 6.31 µM [inhibitor, partial curve].

**Q.** For `Cn1c(=O)[nH]c(=O)c2c1nc(N1CCCCCC1)n2CCSc1nc2ccccc2o1`, which Potency is on record?
**A.** The Potency was inconclusive: 1.26 µM [inhibitor, single point].

**Q.** With `Nc1nc(-c2ccc3c(c2)NC(=O)CO3)cs1` as the compound, how does the “activity change, negative = inhibition” value read?
**A.** Its value is inactive: -2.25%.

**Q.** For `CN(C)S(=O)(=O)c1ccc(Cl)c(NC(=O)COC(=O)/C=C/c2cnc3ccccc3n2)c1`, which Potency is on record?
**A.** Its Potency is inconclusive: 7.94 µM [inhibitor, partial curve].

**Q.** Which “activity change, negative = inhibition” value does the source give for `CSc1nnc(-c2sc3cc(Cl)ccc3c2Cl)n1C` here?
**A.** The value was inactive: 3.53%.

**Q.** Which “activity change, negative = inhibition” value does the source give for `CCCOc1ccc(CCC(=O)O)cc1` here?
**A.** The value was inactive: 23%.

**Q.** For `CN(CCC1CCCCO1)C(=O)c1cc(COc2ccc(F)cc2F)on1` (stereo not given), which Potency is on record?
**A.** The Potency was inconclusive: 1.12 µM [inhibitor, single point].

**Q.** For `Oc1cc(Nc2cccnc2)cc2cccnc12`, which Potency is on record?
**A.** Its Potency is inconclusive: 12.6 µM [inhibitor, single point].

**Q.** Which Potency does the source give for `COCC(C)n1c(C)cc(C(=O)COC(=O)c2cccn2C)c1C` (stereo not given) here?
**A.** The Potency was inconclusive: 4.47 µM [inhibitor, partial curve, poor fit].

**Q.** With `O=C(NN1CCOCC1)c1ccc(F)cc1` as the compound, how does the Potency read?
**A.** Its Potency is inconclusive: 12.6 µM [inhibitor, partial curve, poor fit].

**Q.** For `Nc1c(Cl)ncnc1N/N=C/c1ccc(O)cc1`, which Potency is on record?
**A.** Its Potency is inconclusive: 10 µM [inhibitor, partial curve, poor fit].

**Q.** For `Cn1c(=O)c2c(nc(CCC3CCCC3)n2C)n(C)c1=O`, which “activity change, negative = inhibition” value is on record?
**A.** Its value is inactive: -1.66%.

**Q.** With `O=C(Nc1nnc(-c2ccco2)o1)c1ccc(Cl)s1` as the compound, how does the Potency read?
**A.** Its Potency is inconclusive: 11.2 µM [inhibitor, partial curve, poor fit].

**Q.** For `CC1Cc2cc(S(=O)(=O)N3CCC(C(=O)N(C)Cc4ccco4)CC3)ccc2N1C(=O)C1CCC1` (stereo not given), which Potency is on record?
**A.** The Potency was inconclusive: 12.6 µM [inhibitor, single point].

**Q.** Which Potency does the source give for `O=C(c1ccc(S(=O)(=O)Cc2ccccc2Cl)c([N+](=O)[O-])c1)N1CCN(c2ccccn2)CC1` here?
**A.** The Potency was inconclusive: 7.94 µM [inhibitor, partial curve].

**Q.** For `Oc1ccc(/C=N/Nc2cc(N3CCCC3)nc(N3CCCC3)n2)cc1`, which “activity change, negative = inhibition” value is on record?
**A.** The value was inactive: 12.4%.

**Q.** For `CSc1ccc(NC(N)=S)cc1`, which Potency is on record?
**A.** The Potency was inconclusive: 22.4 µM [inhibitor, single point].

**Q.** Which Potency does the source give for `C=CCn1c(SCC(=O)c2ccc(O)c(O)c2)nnc1-c1cccc(Cl)c1` here?
**A.** The Potency was inconclusive: 5.62 µM [inhibitor, partial curve, poor fit].

**Q.** With `C/C=C/C1=CC(=O)C[C@H](c2ccc(F)cc2)C1` as the compound, how does the Potency read?
**A.** Its Potency is inconclusive: 5.62 µM [inhibitor, partial curve, poor fit].

**Q.** For `Cc1cccc(N/N=C/c2ccc(O)c(O)c2O)c1`, which “activity change, negative = inhibition” value is on record?
**A.** Its value is inactive: -6.82%.

**Q.** With `CCn1c(SCC(=O)N2CCN(c3ccccc3)CC2)nnc1-c1c[nH]c2ccccc12` as the compound, how does the Potency read?
**A.** Its Potency is active: 7.94 µM.

**Q.** For `OCCNCCCCSc1ccc(Cl)cc1`, which Potency is on record?
**A.** Its Potency is active: 8.91 µM.

**Q.** For `Cc1ccc2c(C)nc(Nc3nc(CSc4nc5ccccc5[nH]4)cc(=O)[nH]3)nc2c1`, which Potency is on record?
**A.** The Potency was inconclusive: 4.47 µM [inhibitor, partial curve, poor fit].

**Q.** With `CCc1cccc(NS(=O)(=O)c2ccc(-n3cccn3)cc2)c1` as the compound, how does the “activity change, negative = inhibition” value read?
**A.** Its value is inactive: -3.49%.

**Q.** Which “activity change, negative = inhibition” value does the source give for `CCNC(=O)CSc1nnc(C2CC2)n1-c1ccccc1` here?
**A.** The value was inactive: 5.76%.

**Q.** With `CCc1ccc(NC(=O)CSc2ccc(-c3ccccn3)nn2)cc1` as the compound, how does the Potency read?
**A.** Its Potency is inconclusive: 28.2 µM [inhibitor, single point].

**Q.** With `c1ccc(CNc2ccc(N3CCOCC3)cc2)cc1` as the compound, how does the Potency read?
**A.** Its Potency is inconclusive: 4.47 µM [inhibitor, partial curve].

**Q.** For `O=S(=O)(c1ccccc1)N1CCN(Cc2cc3c(cc2Br)OCCO3)CC1`, which “activity change, negative = inhibition” value is on record?
**A.** Its value is inactive: 6.83%.

**Q.** For `COC(=O)c1cc(OC)nc2ccc(Br)cc12`, which Potency is on record?
**A.** The Potency was inconclusive: 1.12 µM [inhibitor, full curve, poor fit].

**Q.** With `Cc1c(C(=O)N2c3ccccc3CC2C)oc2ccccc12` (stereo not given) as the compound, how does the Potency read?
**A.** Its Potency is inconclusive: 10 µM [inhibitor, partial curve, poor fit].
